According to the supplement of paper PMC12823440, “Inhibitors supercharge kinase turnover through native proteolytic circuits” (Nature, 2025):
Counter-ions that a name gives are not always drawn. The list shows a part of the results. Hit calls seldom repeat between salt and free forms of one compound.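 In K562 cells expressing nanoluciferase-fused kinases, luminescence was recorded at 4 h intervals between 2 and 18 h, normalized as percent of control with DMSO at 100% and a positive control at 0%. A significant (2 sigma) signal drop marks a time point as decreased. The authors' rule for a hit is not shown and takes in more than the number of time points.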

Amino acid sequences for entries named in this document (tags omitted). A change or cut given only in a name is not applied to a line headed by its entry.
UniProt P49840: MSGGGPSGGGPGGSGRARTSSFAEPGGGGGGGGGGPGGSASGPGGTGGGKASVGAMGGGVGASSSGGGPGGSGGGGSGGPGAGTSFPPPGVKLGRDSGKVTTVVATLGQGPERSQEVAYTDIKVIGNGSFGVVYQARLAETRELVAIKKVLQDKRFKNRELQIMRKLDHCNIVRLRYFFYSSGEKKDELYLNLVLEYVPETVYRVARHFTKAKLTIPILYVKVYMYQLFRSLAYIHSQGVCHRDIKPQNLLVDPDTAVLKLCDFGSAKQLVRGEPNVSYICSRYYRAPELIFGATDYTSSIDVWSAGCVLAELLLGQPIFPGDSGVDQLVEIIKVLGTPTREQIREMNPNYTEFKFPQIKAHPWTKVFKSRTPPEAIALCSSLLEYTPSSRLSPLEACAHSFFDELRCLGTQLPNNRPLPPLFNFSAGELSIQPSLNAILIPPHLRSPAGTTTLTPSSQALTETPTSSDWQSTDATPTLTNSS

Each molecule was assayed against GSK3A (UniProt P49840) (assay: kinase-Nluc reporter destabilization hit call (1 = scored as downregulated) (binary); higher = compound decreases kinase abundance). Settings: K562; 2-18 h.
In the case of COc1cccc(-c2cc(=O)c3ccccc3o2)c1N (10 µM), the “kinase-Nluc reporter destabilization hit call” value is reported as inactive: 0. C[C@@H]1COC(Nc2ccc3ncnc(Nc4ccc(OCc5nccs5)c(Cl)c4)c3c2)=N1 [Varlitinib] (10 µM) was tested, and the “kinase-Nluc reporter destabilization hit call” value was inactive: 0. Cc1nc(Nc2cnn(C3CCNCC3)c2)nc2c1N(C)C(=O)c1cc3ccccc3cc1N2C (2.5 µM) was tested, and the “kinase-Nluc reporter destabilization hit call” value was inactive: 0.

Each molecule was assayed against HER2 (UniProt P04626) in the same assay as above. Settings: K562; 2-18 h.
In the case of O=c1cc(-c2ccc(O[C@@H]3O[C@H](CO)[C@@H](O)[C@H](O)[C@H]3O)cc2)oc2cc(O)c([C@@H]3O[C@H](CO)[C@@H](O)[C@H](O)[C@H]3O[C@@H]3OC[C@H](O)[C@H](O)[C@H]3O)c(O)c12 [Vaccarin] (10 µM), the “kinase-Nluc reporter destabilization hit call” value is reported as inactive: 0. For O=CN1CCN(c2ccc(C=C3C(=O)Nc4ccccc43)cc2)CC1 (10 µM), the “kinase-Nluc reporter destabilization hit call” value was inactive: 0. In the case of COc1ccc(Cl)cc1N(CC(=O)Nc1ccc2c(c1)OCO2)S(=O)(=O)c1ccccc1 (2.5 µM), the “kinase-Nluc reporter destabilization hit call” value is reported as inactive: 0. In the case of CCc1c(C(=O)NNC(=O)[C@H](O)c2cc(F)cc(F)c2)ccc(O)c1C (10 µM), the “kinase-Nluc reporter destabilization hit call” value is reported as inactive: 0. With CN(C)CCn1cc2cc(NC(=O)c3cccc(C(F)(F)F)n3)c(C(C)(C)O)cc2n1 (10 µM) the “kinase-Nluc reporter destabilization hit call” value was inactive: 0. With CCC[C@H](C)Oc1nc(N)c2[nH]c(=O)n(CCCCCN3CCCCC3)c2n1 (10 µM) the “kinase-Nluc reporter destabilization hit call” value was inactive: 0. In the case of CCOC(=O)c1c(C)[nH]c(C=C2C(=O)Nc3ccccc32)c1C (10 µM), the “kinase-Nluc reporter destabilization hit call” value is reported as inactive: 0. In the case of Cc1ccc(NC(=O)N2CCN(c3nc(N)nc4sc(-c5cccnc5)nc34)CC2)cc1 [PI4KIII beta inhibitor 3] (10 µM), the “kinase-Nluc reporter destabilization hit call” value is reported as inactive: 0. CS[C@@]1(C(=O)Nc2ccc3[nH]nc(-c4ccc(OC(C)C)nc4)c3c2)CCN(CC(=O)N2CC=C(c3ccc(-c4ncn(C)n4)cc3)CC2)C1 (2.5 µM) was tested, and the “kinase-Nluc reporter destabilization hit call” value was inactive: 0. In the case of O=C(Nc1ccc(Cl)cc1)C1CN(C(=O)c2cccc(-c3ccco3)c2)CC(F)(F)C1 (stereo unspecified) (2.5 µM), the “kinase-Nluc reporter destabilization hit call” value is reported as inactive: 0. Nc1ccc(Sc2nc3ccccc3s2)c(Cl)c1 [KRAS inhibitor-9] (10 µM) was tested, and the “kinase-Nluc reporter destabilization hit call” value was inactive: 0. In the case of Cn1c(N2CCO[C@@H](c3ccc(F)cc3)C2)nc(-c2ccncn2)cc1=O (10 µM), the “kinase-Nluc reporter destabilization hit call” value is reported as inactive: 0. COc1ccc(CN2CCC(c3ccc4nc(C(=O)N5CCN(Cc6ccc(C(F)(F)F)cc6)CC5)[nH]c4c3)CC2)cn1 (2.5 µM) was tested, and the “kinase-Nluc reporter destabilization hit call” value was inactive: 0. O=C(O)c1c[nH]c2cc(Cl)c(-c3ccc(C4(O)CCC4)cc3)cc12 (10 µM) was tested, and the “kinase-Nluc reporter destabilization hit call” value was inactive: 0. For CC(C)(Oc1ccc(Cl)cc1)C(=O)Nc1ccc(OCc2ccc(C#N)cc2)cc1 [AMPK activator 4] (10 µM), the “kinase-Nluc reporter destabilization hit call” value was inactive: 0. With O=C(NCc1ccn[nH]1)c1cc([C@@H]2CCNC[C@H]2COc2ccc3c(c2)OCO3)ccc1F [GRK2-IN-1 (hydrochloride)] (10 µM) the “kinase-Nluc reporter destabilization hit call” value was inactive: 0. For Cc1cnc(Cl)nc1-c1ccc(N(Cc2ccc(CNC(=O)C(F)F)cc2)C(=O)c2ccc(O)cc2O)cc1 (10 µM), the “kinase-Nluc reporter destabilization hit call” value was inactive: 0. In the case of CC1=C(C#N)C(c2ccc3[nH]nc(C)c3c2)C(C#N)=C(C)N1 (10 µM), the “kinase-Nluc reporter destabilization hit call” value is reported as inactive: 0. In the case of CN(C[C@@H]1COCCO1)S(=O)(=O)Nc1ccc2ccc3ncc(-c4cnn(C)c4)cc3c(=O)c2c1 (2.5 µM), the “kinase-Nluc reporter destabilization hit call” value is reported as inactive: 0. For CC(=O)Nc1nc(C)c(-c2cc(C)c3c(c2)CN([C@@H](C)C2CC2)C3=O)s1 (10 µM), the “kinase-Nluc reporter destabilization hit call” value was inactive: 0. With O=C(Nc1ccccc1C(=O)NC1CCCCNC1=O)c1cc2ccccc2s1 (stereo unspecified) (10 µM) the “kinase-Nluc reporter destabilization hit call” value was inactive: 0. With CO[C@]1(C(=O)N[C@@H](C)c2ccc(-n3cc(F)cn3)nc2)CC[C@H](c2nc(C)cc(Nc3cc(C)[nH]n3)n2)CC1 [Pralsetinib] (10 µM) the “kinase-Nluc reporter destabilization hit call” value was inactive: 0. In the case of O=[N+]([O-])c1ccc(-c2nc(-c3ccc(F)cc3)c(-c3ccncc3)[nH]2)cc1 (10 µM), the “kinase-Nluc reporter destabilization hit call” value is reported as inactive: 0. For CC(ONC(=O)c1cc(C(F)(F)F)cc(C(F)(F)F)c1)C(=O)Nc1ccc(Cl)cc1 (stereo unspecified) (2.5 µM), the “kinase-Nluc reporter destabilization hit call” value was active: 1. With Cc1cncc2cccc(S(=O)(=O)N3CCCNC[C@@H]3C)c12 [H-1152 (dihydrochloride)] (10 µM) the “kinase-Nluc reporter destabilization hit call” value was inactive: 0. With Cc1nc(NC(=O)N2CCC[C@H]2C(N)=O)sc1-c1ccnc(C(C)(C)C(F)(F)F)c1 [Alpelisib] (2.5 µM) the “kinase-Nluc reporter destabilization hit call” value was inactive: 0. With CCCCNc1ncc2c(-c3ccc(F)cc3)nn(CC3CCC(N)CC3)c2n1 (stereo unspecified) (2.5 µM) the “kinase-Nluc reporter destabilization hit call” value was inactive: 0. For CS(=O)(=O)c1ccc([C@@H](CC2CCCC2)C(=O)Nc2nccs2)cc1 (10 µM), the “kinase-Nluc reporter destabilization hit call” value was inactive: 0. For CO/N=C1/C(c2c(O)[nH]c3cc(Cl)c(Cl)cc23)=Nc2ccccc21 (10 µM), the “kinase-Nluc reporter destabilization hit call” value was inactive: 0. CNCc1ccccc1Sc1cccc2ccccc12 [IFN alpha-IFNAR-IN-1 (hydrochloride)] (10 µM) was tested, and the “kinase-Nluc reporter destabilization hit call” value was inactive: 0. For C=CC(=O)N1CCC(c2ccc(C(N)=O)c(-c3ccc(Oc4ccccc4)cc3)n2)CC1 [Orelabrutinib] (2.5 µM), the “kinase-Nluc reporter destabilization hit call” value was inactive: 0. In the case of Cc1cc2c(F)c(Oc3ncnn4cc(OC[C@@H](C)OC(=O)[C@H](C)N)c(C)c34)ccc2[nH]1 [Brivanib (alaninate)] (10 µM), the “kinase-Nluc reporter destabilization hit call” value is reported as inactive: 0. With CCC(F)(F)c1cc(N2CCC(S(C)(=O)=O)CC2)nc2sc(C(N)=O)c(N)c12 (10 µM) the “kinase-Nluc reporter destabilization hit call” value was inactive: 0. NC(=O)c1c(NC(=O)C2CC2)sc2c1CCCC2 (10 µM) was tested, and the “kinase-Nluc reporter destabilization hit call” value was inactive: 0. CC(C)=CCC[C@](C)(O[C@@H]1O[C@H](CO[C@@H]2O[C@H](CO)[C@@H](O)[C@H](O)[C@H]2O)[C@@H](O)[C@H](O)[C@H]1O)[C@H]1CC[C@]2(C)[C@@H]1[C@H](O)C[C@@H]1[C@@]3(C)CC[C@H](O[C@@H]4O[C@H](CO)[C@@H](O)[C@H](O)[C@H]4O[C@@H]4O[C@H](CO)[C@@H](O)[C@H](O)[C@H]4O)C(C)(C)[C@@H]3CC[C@]12C [Ginsenoside Rb1] (10 µM) was tested, and the “kinase-Nluc reporter destabilization hit call” value was inactive: 0. In the case of COc1cccc(-c2cc(=O)c3ccccc3o2)c1N (10 µM), the “kinase-Nluc reporter destabilization hit call” value is reported as inactive: 0. For C[C@@H]1COC(Nc2ccc3ncnc(Nc4ccc(OCc5nccs5)c(Cl)c4)c3c2)=N1 [Varlitinib] (10 µM), the “kinase-Nluc reporter destabilization hit call” value was inactive: 0. With Cc1nc(Nc2cnn(C3CCNCC3)c2)nc2c1N(C)C(=O)c1cc3ccccc3cc1N2C (2.5 µM) the “kinase-Nluc reporter destabilization hit call” value was inactive: 0.
